Data source: PubChem BioAssay AID1259268 (Sanger Institute, 2017)
In all, the deposit lists 160 reagents; shown is a part drawn at random. Of all reagents, 58 (36%) got an active call. 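Trametinib by itself roughly halved viability, making its arm harsher than the cetuximab and BYL719 arms.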 Entries without a mark were called inactive. Reagents against one gene are numbered here. Not all columns of the deposit are shown. Not stated in the record: the amount of reagent, the time to read-out.

Purpose: 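Kinase silencing that acts in synergy with trametinib, cetuximab or BYL719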 (follow-up of hits)
Cell system: human SNUC1 colorectal cancer cells
Reagents: single siRNA against human genes
Challenge: anchor drugs added a day after transfection: BYL719 1 µM, cetuximab 5 µg/ml or trametinib 10 nM, versus DMSO vehicle
Detection: 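Mean viability per well relative to non-targeting pool 2 siRNA, plus a synergy score weighing the joint knock-down and drug effect against each effect alone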
Direction: synergy score with trametinib and synergy score with cetuximab and synergy score with BYL719: higher = stronger synergy of knock-down with drug
Active means: 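Active if the synergy score is above 0.10 for at least one of the three drugs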
Meaning of the calls: active = synergy with at least one drug; inactive = no synergy with any drug

Gene	reagent no.	synergy score with trametinib	synergy score with cetuximab	synergy score with BYL719
NR2F2	1	0.036	-0.149	-0.189
NR2F2	2	-0.09	-0.16	-0.101
NR2F2	3	0.0148	-0.132	-0.299
NR2F2	4	0.1	-0.174	-0.324
PRAG1	1	0.212 (active)	0.271	0.0819
PRAG1	2	0.329 (active)	-0.0653	0.111
PRAG1	3	0.0635	-0.0361	-0.121
PRAG1	4	0.162 (active)	0.0635	0.0299
CRIM1	1	-0.0497	-0.191	-0.333
CRIM1	2	0.175 (active)	0.0628	-0.06
CRIM1	3	0.265 (active)	-0.0352	-0.143
CRIM1	4	0.273 (active)	-0.0506	-0.2
CDKN2D	1	0.339 (active)	-0.0663	-0.108
CDKN2D	2	0.135 (active)	-0.00579	-0.0382
CDKN2D	3	0.193 (active)	-0.0663	-0.0938
CDKN2D	4	0.173 (active)	-0.0967	0.0403
MARK3	1	-0.0462	-0.0868	-0.18
MARK3	2	-0.0641	-0.0663	-0.23
MARK3	3	0.0236	-0.154	-0.33
MARK3	4	0.0276	-0.107	-0.359
AK2	1	0.204 (active)	-0.00444	0.044
AK2	2	0.198 (active)	-0.0663	-0.23
AK2	3	-0.0435	-0.0567	-0.23
AK2	4	0.292 (active)	0.0236	-0.172
GUCY2D	1	0.0656	-0.0272	-0.177
GUCY2D	2	0.112 (active)	-0.11	-0.106
GUCY2D	3	-0.0245	-0.182	-0.159
GUCY2D	4	0.0405	-0.0622	-0.23
MAP3K8	1	-0.00401	-0.0135	-0.23
MAP3K8	2	0.0336	0.0223	0.00383
MAP3K8	3	0.0165 (active)	0.105	-0.232
MAP3K8	4	0.0645	0.0341	-0.103
ACVR1	1	-0.0471	-0.329	-0.42
ACVR1	2	-0.00155	-0.194	-0.154
ACVR1	3	0.142 (active)	-0.0663	-0.196
ACVR1	4	0.297 (active)	-0.0839	-0.285
KCNH8	1	0.128 (active)	-0.0214	0.0893
KCNH8	2	0.13 (active)	-0.104	-0.133
KCNH8	3	0.0737 (active)	0.154	-0.0173
KCNH8	4	0.134 (active)	0.0301	-0.119
CDK6	1	0.0131	-0.00306	-0.34
CDK6	2	0.0967	-0.208	-0.195
CDK6	3	0.0456	-0.116	-0.132
CDK6	4	0.0207	-0.26	-0.2
IRAK1	1	0.151 (active)	0.0653	0.169
IRAK1	2	0.0205	-0.0554	-0.0424
IRAK1	3	0.129 (active)	-0.0627	-0.127
IRAK1	4	-0.0197	-0.02	-0.0761
GRK5	1	0.102 (active)	-0.0663	-0.23
GRK5	2	0.0045	-0.0663	-0.23
GRK5	3	0.127 (active)	-0.0164	-0.0387
GRK5	4	0.0713	-0.0599	-0.242

Looked up above:
Value for KCNH8 #2 in “synergy score with cetuximab”: -0.104 (active)
Value for CDK6 #1 in “synergy score with cetuximab”: -0.00306
Entry of CRIM1 #2 in “synergy score with trametinib”: 0.175 (active)
MARK3 #1, synergy score with BYL719: -0.18
For “synergy score with trametinib”, MAP3K8 #1 reads -0.00401
Under “synergy score with trametinib”, ACVR1 #1 is entered as -0.0471
